# Assay results published in the supplement of paper PMC8728848.
# This is one part of the list.
# What was measured:
# Test in all cases: glycan array binding signal (z-score within array); higher = stronger binding
# Details in all cases: glycan notation: IUPAC condensed, linker removed
# [1] = target: Neu5Ac(a2-3)GalNAc(b1-4)GlcNAc
# Method in brief: (§1)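 Columns mapping to the same glycan were averaged after glycan names were converted to IUPAC-condensed notation. The data come from 3228 arrays in the Consortium for Functional Glycomics database, limited to those with an available protein sequence. Binding is reported as a within-array Z-score averaged across arrays of one protein sequence and across linkers.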
# [2] = target: Neu5Ac(a2-3)[GalNAc(b1-4)]Gal(b1-4)Glc
# Method in brief: as §1
# [3] = target: Neu5Ac(a2-3)[GalNAc(b1-4)]Gal(b1-4)GlcNAc
# Method in brief: as §1
# [4] = target: Neu5Ac(a2-3)[GalNAc(b1-4)]Gal(b1-4)GlcNAc(b1-3)GalNAc
# Method in brief: as §1
# [5] = target: Neu5Ac(a2-3)[Neu5Ac(a2-6)]GalNAc
# Method in brief: as §1
# Neu5Ac(a2-6)Gal = target: Neu5Ac(a2-6)Gal
# Method in brief: as §1
# [6] = target: Neu5Ac(a2-6)Gal(b1-3)GlcNAc(b1-3)[Gal(b1-4)GlcNAc(b1-6)]Gal(b1-4)Glc
# Method in brief: as §1
# Neu5Ac(a2-6)Gal(b1-4)Glc = target: Neu5Ac(a2-6)Gal(b1-4)Glc
# Method in brief: as §1
# [7] = target: Neu5Ac(a2-6)Gal(b1-4)GlcNAc
# Method in brief: as §1
# [8] = target: Neu5Ac(a2-6)Gal(b1-4)GlcNAc(b1-2)Man
# Method in brief: as §1
# [9] = target: Neu5Ac(a2-6)Gal(b1-4)GlcNAc(b1-2)Man(a1-3)Man(b1-4)GlcNAc(b1-4)GlcNAc
# Method in brief: as §1
# [10] = target: Neu5Ac(a2-6)Gal(b1-4)GlcNAc(b1-2)Man(a1-3)[Gal(b1-4)GlcNAc(b1-2)Man(a1-6)]Man(b1-4)GlcNAc(b1-4)GlcNAc
# Method in brief: as §1
# [11] = target: Neu5Ac(a2-6)Gal(b1-4)GlcNAc(b1-2)Man(a1-3)[GlcNAc(b1-2)Man(a1-6)]Man(b1-4)GlcNAc(b1-4)GlcNAc
# Method in brief: as §1
# [12] = target: Neu5Ac(a2-6)Gal(b1-4)GlcNAc(b1-2)Man(a1-3)[GlcNAc(b1-4)][Neu5Ac(a2-6)Gal(b1-4)GlcNAc(b1-2)Man(a1-6)]Man(b1-4)GlcNAc(b1-4)GlcNAc
# Method in brief: as §1
# [13] = target: Neu5Ac(a2-6)Gal(b1-4)GlcNAc(b1-2)Man(a1-3)[Man(a1-6)]Man(b1-4)GlcNAc(b1-4)GlcNAc
# Method in brief: as §1
# [14] = target: Neu5Ac(a2-6)Gal(b1-4)GlcNAc(b1-2)Man(a1-3)[Neu5Ac(a2-3)Gal(b1-4)GlcNAc(b1-2)Man(a1-6)]Man(b1-4)GlcNAc(b1-4)GlcNAc
# Method in brief: as §1
# [15] = target: Neu5Ac(a2-6)Gal(b1-4)GlcNAc(b1-2)Man(a1-3)[Neu5Ac(a2-6)Gal(b1-4)GlcNAc(b1-2)Man(a1-6)]Man(b1-4)GlcNAc(b1-4)GlcNAc
# Method in brief: as §1
# [16] = target: Neu5Ac(a2-6)Gal(b1-4)GlcNAc(b1-2)Man(a1-3)[Neu5Ac(a2-6)Gal(b1-4)GlcNAc(b1-2)Man(a1-6)]Man(b1-4)GlcNAc(b1-4)[Fuc(a1-6)]GlcNAc
# Method in brief: as §1
# [17] = target: Neu5Ac(a2-6)Gal(b1-4)GlcNAc(b1-2)Man(a1-6)Man(b1-4)GlcNAc(b1-4)GlcNAc
# Method in brief: as §1
# [18] = target: Neu5Ac(a2-6)Gal(b1-4)GlcNAc(b1-2)Man(a1-6)[Gal(b1-4)GlcNAc(b1-2)Man(a1-3)]Man(b1-4)GlcNAc(b1-4)GlcNAc
# Method in brief: as §1
# [19] = target: Neu5Ac(a2-6)Gal(b1-4)GlcNAc(b1-2)Man(a1-6)[GlcNAc(b1-2)Man(a1-3)]Man(b1-4)GlcNAc(b1-4)GlcNAc
# Method in brief: as §1
# [20] = target: Neu5Ac(a2-6)Gal(b1-4)GlcNAc(b1-2)Man(a1-6)[Man(a1-3)]Man(b1-4)GlcNAc(b1-4)GlcNAc
# Method in brief: as §1
# [21] = target: Neu5Ac(a2-6)Gal(b1-4)GlcNAc(b1-2)[Neu5Ac(a2-6)Gal(b1-4)GlcNAc(b1-4)]Man(a1-3)[GlcNAc(b1-4)][Neu5Ac(a2-6)Gal(b1-4)GlcNAc(b1-2)[Neu5Ac(a2-6)Gal(b1-4)GlcNAc(b1-6)]Man(a1-6)]Man(b1-4)GlcNAc(b1-4)GlcNAc
# Method in brief: as §1
# [22] = target: Neu5Ac(a2-6)Gal(b1-4)GlcNAc(b1-2)[Neu5Ac(a2-6)Gal(b1-4)GlcNAc(b1-4)]Man(a1-3)[GlcNAc(b1-4)][Neu5Ac(a2-6)Gal(b1-4)GlcNAc(b1-4)Man(a1-6)]Man(b1-4)GlcNAc(b1-4)GlcNAc
# Method in brief: as §1
# [23] = target: Neu5Ac(a2-6)Gal(b1-4)GlcNAc(b1-2)[Neu5Ac(a2-6)Gal(b1-4)GlcNAc(b1-6)]Man(a1-6)[Neu5Ac(a2-6)Gal(b1-4)GlcNAc(b1-2)Man(a1-3)][GlcNAc(b1-4)]Man(b1-4)GlcNAc(b1-4)GlcNAc
# Method in brief: as §1
# [24] = target: Neu5Ac(a2-6)Gal(b1-4)GlcNAc(b1-3)Gal(b1-3)GlcNAc
# Method in brief: as §1
# [25] = target: Neu5Ac(a2-6)Gal(b1-4)GlcNAc(b1-3)Gal(b1-4)GlcNAc
# Method in brief: as §1
# [26] = target: Neu5Ac(a2-6)Gal(b1-4)GlcNAc(b1-3)Gal(b1-4)GlcNAc(b1-2)Man(a1-3)[Neu5Ac(a2-6)Gal(b1-4)GlcNAc(b1-3)Gal(b1-4)GlcNAc(b1-2)Man(a1-6)]GalNAc
# Method in brief: as §1
# [27] = target: Neu5Ac(a2-6)Gal(b1-4)GlcNAc(b1-3)Gal(b1-4)GlcNAc(b1-3)Gal(b1-4)GlcNAc
# Method in brief: as §1
# [28] = target: Neu5Ac(a2-6)Gal(b1-4)GlcNAc(b1-3)Gal(b1-4)GlcNAc(b1-3)Gal(b1-4)GlcNAc(b1-2)Man(a1-3)[Neu5Ac(a2-6)Gal(b1-4)GlcNAc(b1-3)Gal(b1-4)GlcNAc(b1-3)Gal(b1-4)GlcNAc(b1-2)Man(a1-6)]GalNAc
# Method in brief: as §1
# [29] = target: Neu5Ac(a2-6)Gal(b1-4)GlcNAc(b1-3)Gal(b1-4)GlcNAc(b1-3)GalNAc
# Method in brief: as §1
# [30] = target: Neu5Ac(a2-6)Gal(b1-4)GlcNAc(b1-3)Gal(b1-4)GlcNAc(b1-3)[Neu5Ac(a2-6)Gal(b1-4)GlcNAc(b1-3)Gal(b1-4)GlcNAc(b1-6)]GalNAc
# Method in brief: as §1
# [31] = target: Neu5Ac(a2-6)Gal(b1-4)GlcNAc(b1-3)Gal(b1-4)GlcNAc(b1-6)[Gal(b1-3)]GalNAc
# Method in brief: as §1
# [32] = target: Neu5Ac(a2-6)Gal(b1-4)GlcNAc(b1-3)Gal(b1-4)[Fuc(a1-3)]GlcNAc(b1-3)Gal(b1-4)[Fuc(a1-3)]GlcNAc
# Method in brief: as §1
# [33] = target: Neu5Ac(a2-6)Gal(b1-4)GlcNAc(b1-3)GalNAc
# Method in brief: as §1
# [34] = target: Neu5Ac(a2-6)Gal(b1-4)GlcNAc(b1-3)[Neu5Ac(a2-6)Gal(b1-4)GlcNAc(b1-6)]GalNAc
# Method in brief: as §1
# [35] = target: Neu5Ac(a2-6)Gal(b1-4)GlcNAc(b1-6)GalNAc
# Method in brief: as §1
binder,measurement,setting,value
Pbx1CASH domain (Cryptococcus neoformans) (protein) MDETKPLWGNPRADGISLACKDSIVERNVVYDATDGAIVLFGSAGSTVKNNHVYARTRVILGGINLVDYEPWDGDYTNVKVHHNHLYALGRYFKVGIVIGPASWSDDTESVVHSASVTDNEFSGGYWGYGIVVASAKNFEVLRNKVIWDGEQGVARFSGVPGS,glycan array binding signal (z-score),[1],-0.34
same,glycan array binding signal (z-score),[2],-0.534
same,glycan array binding signal (z-score),[3],-0.754
same,glycan array binding signal (z-score),[4],1.22
same,glycan array binding signal (z-score),[5],-0.817
same,glycan array binding signal (z-score),Neu5Ac(a2-6)Gal,-1.04
same,glycan array binding signal (z-score),[6],0.736
same,glycan array binding signal (z-score),Neu5Ac(a2-6)Gal(b1-4)Glc,-0.412
same,glycan array binding signal (z-score),[7],-0.348
same,glycan array binding signal (z-score),[8],0.138
same,glycan array binding signal (z-score),[9],-0.856
same,glycan array binding signal (z-score),[10],0.565
same,glycan array binding signal (z-score),[11],0.38
same,glycan array binding signal (z-score),[12],1.33
same,glycan array binding signal (z-score),[13],-0.637
same,glycan array binding signal (z-score),[14],-0.338
same,glycan array binding signal (z-score),[15],-0.106
same,glycan array binding signal (z-score),[16],-0.909
same,glycan array binding signal (z-score),[17],-0.857
same,glycan array binding signal (z-score),[18],-0.843
same,glycan array binding signal (z-score),[19],0.135
same,glycan array binding signal (z-score),[20],-0.67
same,glycan array binding signal (z-score),[21],0.958
same,glycan array binding signal (z-score),[22],1.5
same,glycan array binding signal (z-score),[23],1.46
same,glycan array binding signal (z-score),[24],0.16
same,glycan array binding signal (z-score),[25],-0.334
same,glycan array binding signal (z-score),[26],1.6
same,glycan array binding signal (z-score),[27],-0.247
same,glycan array binding signal (z-score),[28],3.13
same,glycan array binding signal (z-score),[29],1.06
same,glycan array binding signal (z-score),[30],1.28
same,glycan array binding signal (z-score),[31],-0.309
same,glycan array binding signal (z-score),[32],-0.977
same,glycan array binding signal (z-score),[33],-0.506
same,glycan array binding signal (z-score),[34],-0.543
same,glycan array binding signal (z-score),[35],1.59

# Quoted at random: 2 records from the list, in no set order.
binder,measurement,setting,value
Pbx1CASH domain (Cryptococcus neoformans) (protein) MDETKPLWGNPRADGISLACKDSIVERNVVYDATDGAIVLFGSAGSTVKNNHVYARTRVILGGINLVDYEPWDGDYTNVKVHHNHLYALGRYFKVGIVIGPASWSDDTESVVHSASVTDNEFSGGYWGYGIVVASAKNFEVLRNKVIWDGEQGVARFSGVPGS,glycan array binding signal (z-score),[1],-0.34
same,glycan array binding signal (z-score),[14],-0.338
